These are yes or no findings as the source states them, for the method shown. In cells and extracts the contact can be indirect. A yes stands for co-enrichment or nearness to the bait. Other partners may have been found. Sequences can lack the tags named with a protein.
Molecular target: T1, HA:Nmnat (Drosophila NMNAT) (Drosophila) (UniProt Q9VC03)
T1 sequence: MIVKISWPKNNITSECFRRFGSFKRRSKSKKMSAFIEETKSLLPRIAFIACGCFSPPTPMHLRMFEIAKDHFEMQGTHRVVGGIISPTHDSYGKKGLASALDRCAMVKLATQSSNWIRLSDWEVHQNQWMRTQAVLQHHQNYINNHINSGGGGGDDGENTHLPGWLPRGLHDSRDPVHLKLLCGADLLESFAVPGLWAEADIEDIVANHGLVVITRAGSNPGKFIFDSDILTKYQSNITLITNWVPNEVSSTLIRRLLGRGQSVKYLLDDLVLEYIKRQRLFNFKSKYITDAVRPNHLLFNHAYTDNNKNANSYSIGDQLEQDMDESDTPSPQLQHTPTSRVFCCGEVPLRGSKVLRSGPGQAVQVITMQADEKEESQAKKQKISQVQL
Assay: affinity purification with mass spectrometry; heads of flies expressing HA:Nmnat; lysis in 25 mM Tris-HCl pH 7.5, 150 mM NaCl, 5 mM EDTA, 1% NP-40, 1 mM DTT; anti-HA affinity gel, eluted with HA peptide; LC-MS/MS

Amino acid sequences for entries named in this document (tags omitted).
UniProt P02828: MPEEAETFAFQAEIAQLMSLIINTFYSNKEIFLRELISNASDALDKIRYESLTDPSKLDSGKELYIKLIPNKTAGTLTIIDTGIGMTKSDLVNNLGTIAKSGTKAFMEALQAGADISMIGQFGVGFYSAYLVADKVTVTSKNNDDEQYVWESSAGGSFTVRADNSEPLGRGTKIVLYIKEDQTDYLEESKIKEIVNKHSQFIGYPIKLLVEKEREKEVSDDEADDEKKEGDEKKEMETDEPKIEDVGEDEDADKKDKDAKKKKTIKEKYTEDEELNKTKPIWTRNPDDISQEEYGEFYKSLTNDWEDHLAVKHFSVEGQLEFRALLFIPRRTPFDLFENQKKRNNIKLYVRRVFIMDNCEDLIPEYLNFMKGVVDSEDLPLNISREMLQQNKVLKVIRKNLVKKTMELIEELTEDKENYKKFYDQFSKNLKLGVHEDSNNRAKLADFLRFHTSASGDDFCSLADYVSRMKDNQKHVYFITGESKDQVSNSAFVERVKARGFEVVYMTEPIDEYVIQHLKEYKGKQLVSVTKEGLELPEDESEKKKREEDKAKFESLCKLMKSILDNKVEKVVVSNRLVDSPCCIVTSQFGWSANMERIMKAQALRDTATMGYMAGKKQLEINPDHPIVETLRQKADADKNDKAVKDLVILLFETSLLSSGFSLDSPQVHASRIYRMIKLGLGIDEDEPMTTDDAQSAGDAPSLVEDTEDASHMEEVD

binding: binds
Substance: HSP83, the Drosophila HSP90 homolog (from UniProt P02828 1-717)

Reference: article PMC4890852
